Data reported in PMC5634496 (Nature Communications, 2017).
Changes are numbered by the printed parent chain. Numbers in names are those of the source. No constants are given. Whether binding was seen depends on the method and setting. For part of these data: In cells and extracts the contact can be indirect. Some entries that bind do so weakly or less than the wild type. Sequences can lack the tags named with a protein.

Legend:
[1] = biological target: T1, TRAF6 full length (Flag-tagged copy and Myc-tagged copy) (mouse), P70196; experiment: co-IP; Flag-tagged TRAF6 or mutants co-transfected with Myc-tagged TRAF6 into HEK293T; immunoprecipitation with anti-Myc (Fig. 5b) or by the Flag-tagged protein (Supplementary Fig. 4b, 5d); immunoblot; lysis buffer A (20 mM Tris-HCl pH 7.4, 150 mM NaCl, 0.5% NP-40, 10% glycerol); details: remark: other sources report otherwise
T1 chain: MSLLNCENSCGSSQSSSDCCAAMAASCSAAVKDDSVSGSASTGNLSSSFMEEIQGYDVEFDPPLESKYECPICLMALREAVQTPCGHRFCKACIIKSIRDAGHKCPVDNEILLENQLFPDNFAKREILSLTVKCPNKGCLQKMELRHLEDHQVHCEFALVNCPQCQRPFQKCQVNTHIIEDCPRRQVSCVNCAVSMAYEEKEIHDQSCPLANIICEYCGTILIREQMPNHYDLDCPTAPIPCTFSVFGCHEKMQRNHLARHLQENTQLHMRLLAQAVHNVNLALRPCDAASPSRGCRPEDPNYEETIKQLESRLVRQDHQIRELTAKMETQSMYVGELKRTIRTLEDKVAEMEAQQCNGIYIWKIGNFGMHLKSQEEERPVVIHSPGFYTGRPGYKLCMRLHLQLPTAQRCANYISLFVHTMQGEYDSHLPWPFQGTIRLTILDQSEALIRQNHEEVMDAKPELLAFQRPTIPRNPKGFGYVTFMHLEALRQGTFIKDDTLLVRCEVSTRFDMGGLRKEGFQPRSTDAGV

[2] = biological target: T2, TRAF6 mutant M5 (deletion of amino acids 313-319), Flag-tagged (mouse) (UniProt P70196); experiment: as above
T2 sequence: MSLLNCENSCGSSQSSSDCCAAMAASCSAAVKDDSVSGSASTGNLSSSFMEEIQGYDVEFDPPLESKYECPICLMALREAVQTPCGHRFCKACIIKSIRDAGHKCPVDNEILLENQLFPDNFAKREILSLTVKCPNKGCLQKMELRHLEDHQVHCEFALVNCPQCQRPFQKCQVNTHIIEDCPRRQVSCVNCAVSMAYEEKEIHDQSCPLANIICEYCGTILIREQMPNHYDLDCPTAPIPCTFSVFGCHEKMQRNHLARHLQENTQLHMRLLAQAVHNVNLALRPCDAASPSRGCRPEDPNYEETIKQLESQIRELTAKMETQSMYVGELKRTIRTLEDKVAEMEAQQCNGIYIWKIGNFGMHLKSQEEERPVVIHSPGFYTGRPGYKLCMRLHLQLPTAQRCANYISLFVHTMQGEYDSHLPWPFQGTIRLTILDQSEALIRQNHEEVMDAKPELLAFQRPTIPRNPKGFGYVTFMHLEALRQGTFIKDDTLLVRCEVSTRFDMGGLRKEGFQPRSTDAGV

[3] = biological target: T3, TRAF6 mutant M3 (I307A, L310A, I342A, L345A), Flag-tagged (mouse) (UniProt P70196); experiment: as above
T3 sequence: T1 chain with I307A, L310A, I342A, L345A

[4] = biological target: T4, TRAF6 mutant M4 (V315A, R316A, H319A), Flag-tagged (mouse) (UniProt P70196); experiment: as above
T4 sequence: T1 chain with V315A, R316A, H319A

[5] = biological target: T5, TRAF6 full length (Flag-tagged copy and Myc-tagged copy) (mouse) (UniProt P70196); experiment: as above
T5 sequence: T1 chain

[6] = biological target: T6, MBP-TRAF6-Flag (mouse), P70196; experiment: native gel or EMSA; proteins purified on anti-Flag M2 magnetic beads, eluted, resolved on 10% native gel, immunoblot with Flag antibody; both purified; details: remark: other sources report otherwise
T6 chain: T1 chain

B1: TRAF6 full length (Flag-tagged copy and Myc-tagged copy), P70196-1 1-530 (protein)
chain: T1 chain
binding [1]: binds

B2: TRAF6 full length (Flag-tagged copy and Myc-tagged copy) (protein, UniProt P70196-1 1-530)
chain: T1 chain
binding [2]: binds
binding [3]: binds
binding [4]: binds

B3: TRAF6 mutant M3 (I307A, L310A, I342A, L345A), Flag-tagged (protein, UniProt P70196-1 1-530)
chain: T1 chain with I307A, L310A, I342A, L345A
binding [5]: binds

B4: MBP-TRAF6-Flag, P70196-1 1-530 (protein)
chain: T1 chain
binding [6]: binds
